Assay results reported in paper PMC7862700.
Only a part is listed here, and it is no random draw. At the low end of the ranking, values are background and their order means little.

Protein sequences, listed by entry. Tags and fused reporters are not part of them. Lines headed by an entry give the natural chain unless they say otherwise; changes in a name come on top.
UniProt O43186: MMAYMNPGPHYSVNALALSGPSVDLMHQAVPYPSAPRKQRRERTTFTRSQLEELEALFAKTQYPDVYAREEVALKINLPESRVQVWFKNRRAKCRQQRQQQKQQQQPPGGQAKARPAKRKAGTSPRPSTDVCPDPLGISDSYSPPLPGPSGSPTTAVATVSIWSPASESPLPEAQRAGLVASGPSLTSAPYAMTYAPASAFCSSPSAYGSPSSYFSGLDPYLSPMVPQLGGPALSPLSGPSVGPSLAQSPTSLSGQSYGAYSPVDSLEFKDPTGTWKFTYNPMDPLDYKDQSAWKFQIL

The sequences below were run against CRX (UniProt O43186) (assay: DAPPL (digital affinity profiling via proximity ligation, sequencing)). Details: 10 mM Tris-HCl pH 7.5, 50 mM NaCl, 1 mM DTT, 4% glycerol, room temperature, 30 min; GST-TFs on glutathione beads, 16-mer random dsDNA library, 0.1% …; high values mean tight binding; double strand, one strand shown; scale: fold enrichment (6-mer frequency, TF over GST control).

Row | Sequence | binding signal
1 | ACTGGT | 0.895
2 | CGCTGC | 0.824
3 | TCCACG | 0.945
4 | AGTTGC | 0.763
5 | TGGGCT | 1.3
6 | AGGAAG | 0.495
7 | CAAATG | 0.98
8 | CTTCCA | 1.42
9 | CACTGT | 0.83
10 | CCCGAT | 1.37
11 | CCCTGT | 0.886
12 | CGACAA | 1.03
13 | GACGAC | 0.723
14 | GAACTG | 0.743
15 | ACCCAT | 1.06
16 | CTGTGC | 0.892
17 | CGGAAG | 0.478
18 | AGTAGC | 0.834
19 | GATCCA | 1.23
20 | AATTGA | 1.1

Row | Sequence | binding signal
21 | CCCGTC | 0.849
22 | CTGGCT | 1.21
23 | ATACGA | 1.17
24 | ACGCAC | 0.75
25 | CTCGAG | 1.26
26 | CGTTTG | 0.794
27 | GACTTT | 1.37
28 | ACGGCT | 1.36
29 | TGGGAA | 0.887
30 | CGCCAT | 0.808
31 | CTTAAC | 2.4
32 | CGGTCT | 0.821
33 | CCACCG | 0.769
34 | TTTTTT | 1.24
35 | ATGCAG | 0.86
36 | TGCCAC | 0.841
37 | ACGGTA | 0.889
38 | GGATGG | 0.815
39 | AACGCC | 0.977

A few values from above.
binding signal with CTTAAC is entered as 2.4
binding signal with CCACCG is entered as 0.769
